This assay addresses ferritin heavy chain 1 (FTH1) (human (endogenous in FARAGE and SUDHL8)) (UniProt P02794). The assay is described as follows: co-IP; coimmunoprecipitation of SH3GL1 and FTH1 in FARAGE and SUDHL8 cells; which protein was precipitated is not told.

The chains behind the UniProt entries cited, without tags or fusion partners.
UniProt Q99961: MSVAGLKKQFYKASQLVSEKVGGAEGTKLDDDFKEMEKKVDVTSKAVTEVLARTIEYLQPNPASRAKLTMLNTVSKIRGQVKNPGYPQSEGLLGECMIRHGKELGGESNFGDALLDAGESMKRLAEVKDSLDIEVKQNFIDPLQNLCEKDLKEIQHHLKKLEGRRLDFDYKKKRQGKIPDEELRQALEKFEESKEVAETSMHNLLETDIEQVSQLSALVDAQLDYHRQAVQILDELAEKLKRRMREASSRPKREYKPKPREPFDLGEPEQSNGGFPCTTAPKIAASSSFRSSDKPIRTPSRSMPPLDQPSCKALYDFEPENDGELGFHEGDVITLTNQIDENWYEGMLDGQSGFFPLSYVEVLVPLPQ

Results are given in words; binding and its absence hold for the method and conditions named. Binding seen in cells or lysates may run through a third protein.

The source of these data is PMC11879899.

With “SH3GL1 (endophilin A2) (from UniProt Q99961 1-368)”, the binding entry is on record as “no binding”.
